Experimental data as given in publication PMC12216130, “Structural basis for the interaction between the bacterial cell division proteins FtsZ and ZapA” (Nature Communications, 2025).
Results are given in words; binding and its absence hold for the method and conditions named. Some entries that bind do so weakly or less than the wild type.

The chains behind the UniProt entries cited, without tags or fusion partners.
UniProt W9BCK7: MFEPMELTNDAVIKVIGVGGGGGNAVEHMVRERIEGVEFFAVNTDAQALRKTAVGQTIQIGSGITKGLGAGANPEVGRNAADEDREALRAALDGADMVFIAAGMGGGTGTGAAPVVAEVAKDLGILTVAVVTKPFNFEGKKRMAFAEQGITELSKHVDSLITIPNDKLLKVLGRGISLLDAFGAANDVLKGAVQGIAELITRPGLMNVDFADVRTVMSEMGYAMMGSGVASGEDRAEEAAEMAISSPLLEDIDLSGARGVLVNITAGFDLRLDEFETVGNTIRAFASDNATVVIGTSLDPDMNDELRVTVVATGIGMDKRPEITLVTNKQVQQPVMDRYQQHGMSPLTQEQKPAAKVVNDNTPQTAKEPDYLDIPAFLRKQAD

Key:
[1] = target: K. pneumoniae FtsZ (K. pneumoniae) (UniProt W9BCK7); test: negative staining electron microscopy; purified ZapA-FtsZ complex at 1.0 mg/ml on carbon grids, 2% uranyl acetate; both purified
[2] = target: K. pneumoniae ZapA (K. pneumoniae) (UniProt A6TDS2); test: crystal structure; KpZapA alone, 10 mg/ml, hanging drop, 293 K, 0.2 M sodium acetate, 0.1 M sodium citrate pH 5.5, 10% PEG4000; 1.8 A; both purified
[3] = target: K. pneumoniae FtsZ (K. pneumoniae) (UniProt W9BCK7); test: high-speed atomic force microscopy (HS-AFM); pre-mixing method: 14 uM KpFtsZ, 36 uM KpZapA, 1 mM GTP in 20 mM HEPES-NaOH pH 7.5, 5 mM MgCl2, 100 mM KCl, mixed, then adsorbed onto mica; room temperature; both purified
[4] = target: K. pneumoniae FtsZ (K. pneumoniae) (UniProt W9BCK7); test: cryo-EM structure; 7.4 uM KpFtsZ, 14.9 uM KpZapA (2x molar excess), 0.6 mM GMPCPP, 17 mM HEPES pH 7.5, 8.6 mM NaCl, 60 mM KCl, 3 mM MgCl2, on ice 15 min; helical refinement to 2.73 A; same data re-analysed with the focus on ZapA (3.89 and 4.27 A maps, 2D classes); both purified

Measured: binding

B1: K. pneumoniae ZapA (natural protein)
chain: MSAQPVDLQIFGRSLRVNCPPEQRDALNQAAEDLNQRLQDLKERTRVTNTEQLVFIAALNISYELTQEKAKTRDYASSMEQRIRMLQQTIEQALLEQGRISE
notes: ZapA of Klebsiella pneumoniae; synthetic gene codon-optimised for E. coli in pColdI-TEV; Tetramer in the structures; also called KpZapA; source: E. coli, purified (HisTrap, TEV cleavage, second HisTrap, Superdex200 SEC); not shown: His6, N-terminal, cleaved
binds: all assays above
